Measured values: PubChem BioAssay AID493014 (National Center for Advancing Translational Sciences (NCATS), 2011)
The list shows a part of the results. Shown are side measurements of this screen, not its main read-out; they come without a call. Most of these compounds were active or inconclusive in the main read-out, so they are no random draw. Potencies come from curve fits of mixed quality, noted in brackets.

Test: qHTS Assay to Find Inhibitors of Chronic Active B-Cell Receptor Signaling
Conditions: ABC-DLBCL IkBa-CBG/CBR reporter, luminescence ratio (green luciferase fused to IkBa over red control in TMD8 lymphoma cells), 4 h
How it was run: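 Concentration-response series (up to 46 uM) were applied to TMD8 dual-reporter cells for 4 h at 37C with doxycycline. Green/red ratio, after filter-overlap correction, defined %Activity; red signal alone was normalised to basal cells and zero luminescence.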

[1] = measured here: CBR red luminescence, cell number
[2] = measured here: IkBa-CBG green luminescence

| Structure (SMILES) | AC50 [1] | AC50 [2] |
| --- | --- | --- |
| Cc1onc(-c2ccccc2)c1C(=O)NC(C)c1ccc2c(c1)OCO2 (configuration not stated) | 35.5 µM [falling, single point] |  |
| O=C1C=C(c2cc3ccccc3o2)C[C@@H](c2ccc(F)cc2)C1 | 16.4 µM [rising, partial curve, poor fit] |  |
| CCOC(=O)Cc1csc(NC(=O)c2ccc(OC)c(OC)c2)n1 | 5.62 µM [falling, partial curve] |  |
| Cc1cc([N+](=O)[O-])ccc1NC(=O)CCC(=O)N1CCCCCC1 | 2.51 µM [rising, full curve, poor fit] |  |
| CC(C)C(=O)Nc1ccc2c(c1)nc(CCN1CCN(c3ccccc3)CC1)n2C | 35.5 µM [falling, single point] |  |
| COc1cc(OC)c(OC)cc1/C=C/c1nc2cc3ccccc3cc2c(=O)n1-c1ccc(Cl)cc1 | 2.51 µM [falling, partial curve] |  |
| COc1ccc(C)cc1N(CC(=O)Nc1cccnc1)S(=O)(=O)c1ccc(C)cc1 | 2 µM [falling, full curve, poor fit] |  |
| COC(=O)c1oc2c(c1C)C1(CCC2)SCCS1 | 32.6 µM [rising, single point] |  |
| CC(OC(=O)c1ccccc1CCc1ccccc1)C(N)=O (configuration not stated) | 35.5 µM [falling, single point] |  |
| COc1ccc(C(=O)N2CCN(Cc3ccccc3C)CC2)cc1OC | 0.92 µM [rising, full curve, poor fit] |  |
| COc1cc(CNCCO)cc(Cl)c1OCc1ccc(Cl)cc1Cl | 14.1 µM [falling, partial curve, poor fit] | 17.8 µM [rising, single point] |
| COc1ccc(-c2cc(-c3ccccc3)n3ncnc3n2)cc1 | 22.4 µM [falling, single point] |  |
| CCN(CC)c1ccc(/C=C(\C#N)C(=O)NCc2ccco2)cc1 | 5.8 µM [rising, full curve, poor fit] | 6.51 µM [falling, partial curve, poor fit] |
| Cc1ccc(-n2nc(C)c(NC(=O)CCl)c2C)cc1 | 13 µM [falling, partial curve] |  |
| Cc1nc(SCC(=O)N2CC(=O)Nc3ccccc32)c2c(C)c(C)sc2n1 | 2 µM [rising, full curve, poor fit] |  |
| O=C(NCc1ccccc1)C(c1ccc(F)cc1)N(C(=O)c1csnn1)c1ccccc1 (configuration not stated) | 10 µM [falling, partial curve] |  |
| CCOC(=O)c1c(NC(=O)COc2ccccc2C#N)sc2c1CC(C)(C)NC2(C)C | 35.5 µM [rising, single point] |  |
| CN(C)CC(C(=O)c1ccccc1)c1ccccc1 (configuration not stated) | 20.6 µM [falling, single point] |  |
| CC(C)[C@@H]1COC(c2cccc(C3=N[C@H](C(C)C)CO3)c2)=N1 | 22.4 µM [rising, partial curve, poor fit] |  |
| Cc1ccc(C(C)C)cc1OCC(=O)N/N=C/c1ccc2c(c1)OCCO2 | 29.1 µM [falling, single point] |  |
| O=c1c2ccccc2nc(COc2ccccc2)n1/N=C/c1ccc(O)c(O)c1 | 35.5 µM [falling, single point] |  |

| Structure (SMILES) | AC50 [1] | AC50 [2] |
| --- | --- | --- |
| O=C(Nc1cccc2ccccc12)NC1CCS(=O)(=O)C1 (configuration not stated) | 12.6 µM [rising, partial curve, poor fit] |  |
| O=C(c1ccco1)N1CCN(C(=O)c2ccc(-c3ccc(Cl)cc3)o2)CC1 | 4.61 µM [falling, full curve, poor fit] |  |
| COc1cccc(NC(=S)NC(=O)Cc2ccc(Cl)cc2)c1 | 35.5 µM [falling, single point] |  |
| O=C(NCC1CCCO1)c1ccc(N2CCCCC2)c([N+](=O)[O-])c1 (configuration not stated) | 7.08 µM [rising, full curve, poor fit] |  |
| Nc1nc(-c2ccccc2)c(N=Nc2cccc3ccccc23)s1 | 29.1 µM [rising, single point] |  |
| Nc1ccc(C(=O)N2CCN(S(=O)(=O)c3ccc4c(c3)OCCCO4)CC2)cc1[N+](=O)[O-] | 7.31 µM [rising, partial curve, poor fit] |  |
| Clc1cccc(Cl)c1COc1ccncc1 | 29.1 µM [rising, single point] |  |
| COc1ccccc1-c1nc(-c2ccncc2)no1 | 17.8 µM [falling, single point] |  |
| O=C(CSc1ncnc2c1nnn2Cc1ccccc1F)NCC1CCCO1 (configuration not stated) | 14.1 µM [falling, partial curve] |  |
| Nc1ccc(-c2nc3ccccc3[nH]2)cc1 | 16.4 µM [falling, single point] |  |
| CCCCCc1nnc(NC(=O)C2COc3ccccc3O2)s1 (configuration not stated) | 2.24 µM [rising, full curve, poor fit] |  |
| Cc1ccc(NC(=O)/C(C#N)=C/c2ccc(Sc3nc(C)cc(C)n3)o2)cc1 | 1.03 µM [rising, full curve, poor fit] |  |
| CC(C)c1nnc(NC(=O)CCS(=O)(=O)c2ccccc2)s1 | 11.2 µM [falling, partial curve, poor fit] |  |
| Cc1ccc(Nc2nc(-c3sc(NC(=O)c4ccccc4)nc3C)cs2)cc1 | 8.91 µM [falling, partial curve, poor fit] |  |
| Cc1ccc(CNC(=O)c2cc3c(=O)n4ccccc4nc3n(Cc3ccco3)c2=N)cc1 | 6.31 µM [falling, single point] |  |
| COc1cccc(C(=O)O/N=C(\N)c2ccc(C)cc2)c1 | 35.5 µM [falling, single point] |  |
| O=C(Nc1ccc(F)cc1)Nc1nnc(-c2ccco2)s1 | 15.8 µM [falling, single point] |  |
| CCc1ccc(O)c(CNCCNCc2cc(CC)ccc2O)c1 | 3.66 µM [falling, full curve, poor fit] |  |
| CC1CCN(c2nc3c(c(=O)n(C)c(=O)n3C)n2CCSc2nc3ccccc3o2)CC1 | 0.013 µM [falling, full curve, poor fit] |  |
| CCC(C)NC(=O)c1nn(Cc2ccccc2)c(=O)c2ccccc12 (configuration not stated) | 28.2 µM [falling, single point] |  |
| Cc1ccc([C@@H]2CC=C(C(=O)O)[C@H](c3ccc(C(C)(C)C)cc3)N2S(=O)(=O)c2ccc(C)cc2)cc1 | 23.1 µM [falling, single point] |  |

| Structure (SMILES) | AC50 [1] | AC50 [2] |
| --- | --- | --- |
| C/C(=N/NC(=O)c1cccs1)c1cccc(NC(=O)C2CC2)c1 | 35.5 µM [falling, single point] |  |
| COC(=O)/C(=N/Nc1ccccc1C)N1CCCc2ccccc21 | 23.1 µM [falling, partial curve, poor fit] |  |
| O=c1[nH]c(NC2CCCCC2)nnc1Cc1ccccc1 | 35.5 µM [rising, single point] |  |
| O=C(Nc1ccc(-c2nnco2)cc1)c1ccccc1 | 8.2 µM [falling, partial curve] |  |
| CC(=O)Nc1ccc(S(=O)(=O)N2CCSc3ccccc32)cc1 | 29.1 µM [falling, single point] | 2.91 µM [falling, full curve] |
| COCC(=O)Nc1cc(OC)cc(OC)c1 | 2.59 µM [falling, partial curve, poor fit] |  |
| CCN1CCN(c2cc(C)c3cc(NC(=S)N4CCOCC4)ccc3n2)CC1 | 17.8 µM [falling, single point] |  |
| Cc1ccnc(N2CCC(C(=O)Nc3ccc4c(c3)OCCO4)CC2)n1 | 12.6 µM [falling, partial curve, poor fit] |  |
| CCn1nnc(NC(=O)c2cccnc2Cl)n1 | 16.4 µM [rising, single point] |  |
| CN(c1cccc(Cl)c1)S(=O)(=O)c1cccc(C(=O)Nc2nc3ccccc3[nH]2)c1 | 16.4 µM [falling, single point] |  |
| COc1ccccc1N1CCN(S(=O)(=O)c2ccc3c4c(cccc24)C(=O)N3C)CC1 | 5.17 µM [falling, single point] | 6.51 µM [rising, partial curve, poor fit] |
| COc1cc2c(cc1NC(=O)CSCC(=O)O)oc1ccccc12 | 7.08 µM [falling, partial curve] |  |
| C[C@@H]1CN([C@H](C)CO)C(=O)c2cccc(NS(=O)(=O)c3cccs3)c2O[C@H]1CN(C)Cc1ccccc1 | 20.6 µM [falling, single point] |  |
| COCCNC(=S)N1CCc2cc(OC)c(OC)cc2C1COc1ccc(F)cc1 (configuration not stated) | 10 µM [rising, partial curve, poor fit] |  |
| CCC(CO)Nc1ncnc2c1cnn2-c1ccc(Cl)cc1 (configuration not stated) | 11.2 µM [falling, partial curve] |  |
| COc1cc(/C=C2/SC(=S)N(CCC(=O)Nc3ccccc3)C2=O)cc(OC)c1OC | 14.1 µM [falling, single point] |  |
| Cc1ccccc1NC(=O)COc1ccc(Br)cc1C | 0.58 µM [rising, partial curve, poor fit] |  |
| C[C@H]1CN([C@@H](C)CO)C(=O)c2cc(NC(=O)C3CCCCC3)ccc2O[C@H]1CN(C)S(=O)(=O)c1ccccc1 | 0.184 µM [rising, full curve, poor fit] |  |
| C=CCn1c(SCCC)nc(O)cc1=O | 29.1 µM [falling, single point] |  |
| CCCCCCCCCCCCN1C(=O)CSC1c1cccnc1 (configuration not stated) | 35.5 µM [falling, single point] |  |
| COc1ccccc1N=Cc1c(C)c(C#N)c2[nH]c3ccccc3n2c1=O | 22.4 µM [falling, single point] |  |

Single entries from the results shown:
Entry of C[C@@H]1CN([C@H](C)CO)C(=O)c2cccc(NS(=O)(=O)c3cccs3)c2O[C@H]1CN(C)Cc1ccccc1 under AC50 [1]: 20.6 µM [falling, single point]
Entry of COc1ccccc1N=Cc1c(C)c(C#N)c2[nH]c3ccccc3n2c1=O under AC50 [1]: 22.4 µM [falling, single point]
Entry of COc1cc2c(cc1NC(=O)CSCC(=O)O)oc1ccccc12 under AC50 [1]: 7.08 µM [falling, partial curve]
